For at least one compound, name, drawing or mass did not settle the structure.
Target: histamine H4 receptor (Homo sapiens, UniProt Q9H3N8)
Assay: In vitro histamine H4 potency in FLIPR (Ca2+ flux, HEK-293 cells coexpressing Gαqi5)
Format: cell-based
Parameters: expressed in transfected cells
Settings: Kb for antagonists and inverse agonists, EC50 for partial agonists
Description: There are many methods available to show the effectiveness of compounds as histamine H4 receptor ligands. Histamine H4 receptors from mammalian species have been cloned. Methods to clone, express, and assess the potency and functional activity of such cloned genes are well known to those skilled in the art of molecular biology. […] Before testing, cells are loaded with a Ca^+2 sensitive fluorescent dye, in this case Fluo-4. In the case of partial agonist or agonist ligands, addition of compound to the cells leads to the increase in intracellular Ca^+2 which is detected by FLIPR (Fluorescence Imaging Plate Reader; Molecular Devices, Sunnyvale, Calif.) technology. […] The fluorescence intensities measured before addition of the test compound are subtracted from the fluorescence intensities at later time points. Peak response values determined at each concentration of ligand are expressed as a percentage of the response obtained with the full agonist histamine. Concentration versus response data are analyzed to obtain compound potency as Kb values for antagonists and inverse agonists and as EC50 values for partial agonists.

Chains of the proteins cited; added tags and fusions are not shown. Lines headed by an entry give the natural chain unless they say otherwise; changes in a name come on top.
UniProt Q9H3N8: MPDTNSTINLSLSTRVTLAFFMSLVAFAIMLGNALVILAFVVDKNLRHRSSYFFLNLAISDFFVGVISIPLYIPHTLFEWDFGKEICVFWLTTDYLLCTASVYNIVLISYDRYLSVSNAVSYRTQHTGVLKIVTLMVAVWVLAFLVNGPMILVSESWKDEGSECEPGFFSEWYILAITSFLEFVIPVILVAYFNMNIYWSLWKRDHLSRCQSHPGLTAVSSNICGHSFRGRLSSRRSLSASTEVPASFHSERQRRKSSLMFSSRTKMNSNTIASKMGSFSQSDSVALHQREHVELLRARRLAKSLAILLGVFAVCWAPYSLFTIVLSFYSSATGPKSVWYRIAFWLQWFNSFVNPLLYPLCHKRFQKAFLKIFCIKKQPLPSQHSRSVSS

Work on `CN1CCN(c2nc(N)nc3c2CCc2c(Br)cccc2-3)CC1` [Example 43, 7-Bromo-4-(4-methyl-piperazin-1-yl)-5,6-dihydro-benzo[h]quinazolin-2-ylamine] yielded a Potency of 0.513 µM.

Source: US8735411B2, “Macrocyclic benzofused pyrimidine derivatives” (AbbVie Inc., priority 2006, dated 2014)
